Results are given in words; binding and its absence hold for the method and conditions named. Some entries that bind do so weakly or less than the wild type.
How the values were obtained:
[1] = molecular target: T1, HBD peptide without the added arginines; test: comparison of HBD with and without terminal arginines; method not described
T1 sequence (peptide): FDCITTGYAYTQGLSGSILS

[2] = molecular target: T2, HBD wt peptide (hepcidin binding domain of ferroportin with two arginines at each end); test: competition on I-HBD bound in wells of a 96-well plate (FIG. 7A legend)
T2 sequence (peptide): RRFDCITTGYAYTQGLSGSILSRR

[3] = molecular target: T2, HBD wt peptide (hepcidin binding domain of ferroportin with two arginines at each end); test: competition with I125-labeled hepcidin (10,000 cpm) on HBD-coated 96-well plate, 4 h room temperature, gamma counter (FIG. 7)
[4] = molecular target: T2, HBD wt peptide (hepcidin binding domain of ferroportin with two arginines at each end); test: binding to bead-immobilized HBD
[5] = molecular target: T2, HBD wt peptide (hepcidin binding domain of ferroportin with two arginines at each end); test: binding to bead-immobilized HBD at different temperatures
[6] = molecular target: T2, HBD wt peptide (hepcidin binding domain of ferroportin with two arginines at each end); test: preincubation with HBD, read out by Fpn-GFP internalization (FIG. 1C legend)

Measured: binding

B1: hepcidin (hepcidin 25, native non-radioactive hepcidin) (peptide, UniProt P81172 60-84, looked up)
peptide: DTHFPICIFCCGCCHRSKCGMCCKT
binds: [1] | [2] | [3] | [4] | [5] | [6]

Reference: patent publication US20100292147A1 (UNIVERSITY OF UTAH RESEARCH FOUNDATION, published 2010)
